Data as given in PubChem BioAssay AID652243 (Drosophila RNAi Screening Center, 2013).
Assay: 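Fly genes required for human androgen receptor driven transcription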 (primary screen). Cells: Drosophila S2R+ cells. Reagents: long dsRNA against Drosophila genes. Duration: 72 h (48 h, then 24 h hormone). Challenge: synthetic androgen R1881 at 10 nM for 24 h. Detection: 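Firefly light from an androgen-responsive reporter and Renilla control light per well, raw and unnormalised, for each of two replicates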. Reading the numbers: firefly reporter light: higher = more light from androgen-responsive reporter; Renilla control light: higher = more constitutive control signal (cell number, transfection). Rule for the call: 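Across duplicate plates, a knock-down whose log firefly/Renilla ratio shifted a set fold down or up from the GFP/LacZ control mean was a hit; the downward cut appears as both 1.5 and 3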. Calls: active = hit: reporter lowered or raised; inactive = no hit.
The deposit covers about 24,000 reagents; this is an unselected part of those that have a named target and a result. Over the whole deposit, 246 (1%) got an active call. 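Plates not normalised; calls are printed but the firefly/Renilla ratio behind them is not deposited; fold cut for lowering reported inconsistently.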 Raw values vary from plate to plate and are shown uncorrected. The numbers tell different reagents against one gene apart. Names joined by + are all predicted targets of the reagent. Not given: the amount of reagent.

For CG10182 #1, the entry reads firefly reporter light, replicate 1 = 1.54e5; firefly reporter light, replicate 2 = 2.02e5; Renilla control light, replicate 1 = 1.94e6; Renilla control light, replicate 2 = 1.99e6; inactive.
CG10182 #2 scored firefly reporter light, replicate 1 = 1.07e6; firefly reporter light, replicate 2 = 9.22e5; Renilla control light, replicate 1 = 1.80e6; Renilla control light, replicate 2 = 1.86e6; inactive.
Against CG10182 #3, the values are firefly reporter light, replicate 1 = 7.42e5; firefly reporter light, replicate 2 = 4.80e5; Renilla control light, replicate 1 = 1.50e6; Renilla control light, replicate 2 = 1.70e6; inactive.
Depletion of CG18787 + CG18789 resulted in: firefly reporter light, replicate 1 = 6.07e5; firefly reporter light, replicate 2 = 7.66e5; Renilla control light, replicate 1 = 5.72e5; Renilla control light, replicate 2 = 7.85e5; inactive.
Or22c #1 gave firefly reporter light, replicate 1 = 64997; firefly reporter light, replicate 2 = 68210; Renilla control light, replicate 1 = 5.85e5; Renilla control light, replicate 2 = 5.72e5; inactive.
Against Or22c #2, the values are firefly reporter light, replicate 1 = 3.18e5; firefly reporter light, replicate 2 = 2.86e5; Renilla control light, replicate 1 = 7.89e5; Renilla control light, replicate 2 = 6.76e5; inactive.
Silencing of CG7432 came out at: firefly reporter light, replicate 1 = 3.34e5; firefly reporter light, replicate 2 = 3.13e5; Renilla control light, replicate 1 = 3.27e6; Renilla control light, replicate 2 = 3.28e6; inactive.
For CG4374 #1, the values are firefly reporter light, replicate 1 = 1.99e5; firefly reporter light, replicate 2 = 2.54e5; Renilla control light, replicate 1 = 2.88e6; Renilla control light, replicate 2 = 2.81e6; inactive.
Depletion of CG4374 #2 came out at: firefly reporter light, replicate 1 = 5.46e5; firefly reporter light, replicate 2 = 5.60e5; Renilla control light, replicate 1 = 6.32e5; Renilla control light, replicate 2 = 6.90e5; inactive.
Dgat2 scored firefly reporter light, replicate 1 = 1.20e6; firefly reporter light, replicate 2 = 1.35e6; Renilla control light, replicate 1 = 2.09e6; Renilla control light, replicate 2 = 2.22e6; inactive.
Depletion of Cks85A came out at: firefly reporter light, replicate 1 = 84373; firefly reporter light, replicate 2 = 70327; Renilla control light, replicate 1 = 2.27e6; Renilla control light, replicate 2 = 2.02e6; inactive.
With knock-down of Ste:CG33238 + Ste:CG33241 + Ste:CG33236 + 11 more #1, the screen gave firefly reporter light, replicate 1 = 6.10e5; firefly reporter light, replicate 2 = 4.63e5; Renilla control light, replicate 1 = 5.50e5; Renilla control light, replicate 2 = 3.74e5; inactive.
Depletion of Ste:CG33238 + Ste:CG33241 + Ste:CG33236 + 11 more #2 gave: firefly reporter light, replicate 1 = 1.83e5; firefly reporter light, replicate 2 = 2.14e5; Renilla control light, replicate 1 = 6.42e5; Renilla control light, replicate 2 = 6.56e5; inactive.
With knock-down of CG43658 #1 the results were firefly reporter light, replicate 1 = 4.96e5; firefly reporter light, replicate 2 = 6.00e5; Renilla control light, replicate 1 = 3.96e6; Renilla control light, replicate 2 = 3.38e6; inactive.
After knock-down of CG43658 #2 the results were firefly reporter light, replicate 1 = 5.97e5; firefly reporter light, replicate 2 = 6.01e5; Renilla control light, replicate 1 = 3.56e6; Renilla control light, replicate 2 = 2.48e6; inactive.
Depletion of CG43658 #3 gave: firefly reporter light, replicate 1 = 9.19e5; firefly reporter light, replicate 2 = 1.31e6; Renilla control light, replicate 1 = 1.18e6; Renilla control light, replicate 2 = 1.21e6; inactive.
Against CG43658 #4 the deposit lists firefly reporter light, replicate 1 = 5.69e5; firefly reporter light, replicate 2 = 8.94e5; Renilla control light, replicate 1 = 8.59e5; Renilla control light, replicate 2 = 1.13e6; inactive.
Silencing of CG7497 #1 gave: firefly reporter light, replicate 1 = 46258; firefly reporter light, replicate 2 = 57407; Renilla control light, replicate 1 = 6.22e5; Renilla control light, replicate 2 = 5.18e5; inactive.
For CG7497 #2, the values are firefly reporter light, replicate 1 = 3.59e5; firefly reporter light, replicate 2 = 3.41e5; Renilla control light, replicate 1 = 1.23e6; Renilla control light, replicate 2 = 1.40e6; inactive.
For CG7497 #3, the entry reads inactive.
Knock-down of CR33221 resulted in: firefly reporter light, replicate 1 = 9.38e5; firefly reporter light, replicate 2 = 7.56e5; Renilla control light, replicate 1 = 7.25e5; Renilla control light, replicate 2 = 6.93e5; inactive.
Knock-down of naz #1 came out at: firefly reporter light, replicate 1 = 1.72e5; firefly reporter light, replicate 2 = 1.79e5; Renilla control light, replicate 1 = 2.18e6; Renilla control light, replicate 2 = 2.43e6; inactive.
naz #2 scored firefly reporter light, replicate 1 = 1.08e5; firefly reporter light, replicate 2 = 93691; Renilla control light, replicate 1 = 1.80e6; Renilla control light, replicate 2 = 1.43e6; inactive.
For Rpp21 #1, the values are firefly reporter light, replicate 1 = 6.52e5; firefly reporter light, replicate 2 = 6.92e5; Renilla control light, replicate 1 = 1.36e6; Renilla control light, replicate 2 = 2.31e6; inactive.
With knock-down of Rpp21 #2, the record shows firefly reporter light, replicate 1 = 8.12e5; firefly reporter light, replicate 2 = 7.52e5; Renilla control light, replicate 1 = 8.63e5; Renilla control light, replicate 2 = 7.27e5; inactive.
Silencing of CG32793 #1 gave: firefly reporter light, replicate 1 = 3.74e5; firefly reporter light, replicate 2 = 5.01e5; Renilla control light, replicate 1 = 5.46e6; Renilla control light, replicate 2 = 4.02e6; inactive.
For CG32793 #2 the deposit lists firefly reporter light, replicate 1 = 1.81e5; firefly reporter light, replicate 2 = 2.33e5; Renilla control light, replicate 1 = 1.33e6; Renilla control light, replicate 2 = 1.55e6; inactive.
After knock-down of CG32793 #3 the results were firefly reporter light, replicate 1 = 5.22e5; firefly reporter light, replicate 2 = 4.16e5; Renilla control light, replicate 1 = 1.23e6; Renilla control light, replicate 2 = 1.28e6; inactive.

No new results follow: 4 of the entries above.
CG43658 #3 — firefly reporter light, replicate 1 = 9.19e5; firefly reporter light, replicate 2 = 1.31e6; Renilla control light, replicate 1 = 1.18e6; Renilla control light, replicate 2 = 1.21e6; outcome = inactive
CG43658 #4 — firefly reporter light, replicate 1 = 5.69e5; firefly reporter light, replicate 2 = 8.94e5; Renilla control light, replicate 1 = 8.59e5; Renilla control light, replicate 2 = 1.13e6; outcome = inactive
CG7497 #1 — firefly reporter light, replicate 1 = 46258; firefly reporter light, replicate 2 = 57407; Renilla control light, replicate 1 = 6.22e5; Renilla control light, replicate 2 = 5.18e5; outcome = inactive
CG7497 #2 — firefly reporter light, replicate 1 = 3.59e5; firefly reporter light, replicate 2 = 3.41e5; Renilla control light, replicate 1 = 1.23e6; Renilla control light, replicate 2 = 1.40e6; outcome = inactive
